Data from patent publication US20160193292A1.
No constants are given. Whether binding was seen depends on the method and setting. Some entries that bind do so weakly or less than the wild type.

Target: T1, JNK-interacting protein 1 (JIP-1) (UniProt Q9WVI9)
T1 sequence (looked up): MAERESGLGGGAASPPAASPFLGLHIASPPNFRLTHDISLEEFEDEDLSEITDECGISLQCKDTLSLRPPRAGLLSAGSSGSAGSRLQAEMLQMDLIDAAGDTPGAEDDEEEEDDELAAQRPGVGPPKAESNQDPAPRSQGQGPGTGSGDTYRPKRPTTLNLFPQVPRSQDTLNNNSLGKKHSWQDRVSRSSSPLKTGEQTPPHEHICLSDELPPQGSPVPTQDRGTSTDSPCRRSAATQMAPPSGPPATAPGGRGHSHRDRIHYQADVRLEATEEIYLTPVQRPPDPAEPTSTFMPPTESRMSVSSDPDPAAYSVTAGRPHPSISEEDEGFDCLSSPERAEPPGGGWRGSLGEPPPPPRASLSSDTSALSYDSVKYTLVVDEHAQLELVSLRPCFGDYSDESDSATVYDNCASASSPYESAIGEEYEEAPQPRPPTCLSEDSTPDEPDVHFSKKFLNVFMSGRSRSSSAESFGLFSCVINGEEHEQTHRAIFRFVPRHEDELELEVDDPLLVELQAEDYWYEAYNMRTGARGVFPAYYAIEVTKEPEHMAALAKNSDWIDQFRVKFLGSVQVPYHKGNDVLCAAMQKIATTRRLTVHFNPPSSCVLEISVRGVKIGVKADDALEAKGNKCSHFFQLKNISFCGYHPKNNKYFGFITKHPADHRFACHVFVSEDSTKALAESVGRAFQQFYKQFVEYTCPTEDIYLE
Experiment: IP-FCM with α-JIP-1 beads in the presence of Tat-POSH

binding: binds
B1: MKK7 (enzyme, UniProt Q8CE90 2-535, looked up)
chain: AASSLEQKLSRLEAKLKQENREARRRIDLNLDISPQRPRPIIVITLSPAPAPSQRAALQLPLANDGGSRSPSSESSPQHPTPPTRPRHMLGLPSTLFTPRSMESIEIDQKLQEIMKQTGYLTIGGQRYQAEINDLENLGEMGSGTCGQVWKMRFRKTGHIIAVKQMRRSGNKEENKRILMDLDVVLKSHDCPYIVQCFGTFITNTDVFIAMELMGTCAEKLKKRMQGPIPERILGKMTVAIVKALYYLKEKHGVIHRDVKPSNILLDERGQIKLCDFGISGRLVDSKAKTRSAGCAAYMAPERIDPPDPTKPDYDIRADVWSLGISLVELATGQFPYKNCKTDFEVLTKVLQEEPPLLPGHMGFSGDFQSFVKDCLTKDHRKRPKYNKLLEHSFIKHYEILEVDVASWFKDVMAKTESPRTSGVLSQHHLPFFSTSVTWGAWPLAAQTPFQSGVIRCRGRVPSPRRATGGSGGQPCVCAGGPGPSFTEMGPSPSPMLSNTFFTPDPGACPGASTWGLPRRRLCQLLTTSTPGCC
